Experimental data taken from patent US5747448A (Meiji Seika Kaisha, Ltd., priority 1993, dated 1998).

Test: general procedure: solution-phase peptide synthesis; DCC/HOBt (fragment condensation); EDCI.HCl/HOBt/NMM with alkali metal chlorides
Details: for cyclisation yield: cyclisation step

Substance | step yield (coupling step) | step yield (late stage modification step) | other results
Boc-(-L-MeLeu-D-Lac-)2 -OBn | 78% | – | –
Boc-(-L-MeLeu-D-Lac-)2 -OH | – | 100% | –
Boc-(-L-MeLeu-D-Lac-)4 -OBn | 83% | – | –
Boc-(L-MeLeu-D-Lac-L-Leu-D-PhLac)2 -OBn | 49.7% | – | –
Boc-(L-MeLeu-D-Lac-L-MeLeu-D-TYRA(OBn))2 -O-All | 44.4% | – | –
Boc-(L-MeLeu-D-Lac-L-MeLeu-D-TYRA(OBn))2 -O-BH | – | 100% | –
Boc-(L-MeLeu-D-OctA-L-MeLeu-D-Lac)2 -OBn | 53.8% | – | –
Boc-(L-MeLeu-D-PhLac-L-Leu-D-Lac)2 -OBn | 70.4% | – | –
Boc-(L-MeLeu-D-VALA-L-MeLeu-D-Lac)2 -OBn | 64.0% | – | –
Boc-(L-MeLeu-D-VALA-L-MeLeu-D-PhLac)2-OBn | 67% | – | –
Boc-(L-MeLeu-D-isoLEUA-L-MeLeu-D-PhLac)2 -OBn | 37.3% | – | –
Boc-(L-MeLeu-D-norLEUA-L-MeLeu-D-PhLac)2 -OBn | 54.5% | – | –
Boc-L-MeLeu-D-LEUA-L-MeLeu-D-Lac-L-MeLeu-D-PhLac-L-MeLeu-D-Lac-OBn | 73% | – | –
Boc-L-MeLeu-D-Lac-L-Leu-D-PhLac-OBn | 72.2% | – | –
Boc-L-MeLeu-D-Lac-L-MeLeu-D-PhLac-L-MeLeu-D-Lac-OBn | 75% | – | –
Boc-L-MeLeu-D-Lac-L-MeLeu-D-PhLac-L-MeLeu-D-norLEUA-L-MeLeu-D-PhLac-OBn | 80.5% | – | –
Boc-L-MeLeu-D-Lac-L-MeLeu-D-TYRA(OBn)-L-MeLeu-D-Lac-L-MeLeu-D-PhLac-OBn | 46.0% | – | –
Boc-L-MeLeu-D-Lac-L-MeLeu-D-TYRA(OBn)-O-All | 77.4% | – | –
Boc-L-MeLeu-D-OctA-L-MeLeu-D-Lac-L-MeLeu-D-PhLac-L-MeLeu-D-Lac-OBn | 68.4% | – | –
Boc-L-MeLeu-D-OctA-L-MeLeu-D-Lac-OBn | 56.8% | – | –

Substance | step yield (coupling step) | step yield (late stage modification step) | other results
Boc-L-MeLeu-D-PhLac-L-Leu-D-Lac-OBn | 90% | – | –
Boc-L-MeLeu-D-PhLac-L-MeLeu-D-Lac-OBn | 67% | – | –
Boc-L-MeLeu-D-VALA-L-MeLeu-D-Lac-OBn | 52% | – | –
Boc-L-MeLeu-D-VALA-L-MeLeu-D-PhLac-OBn | 74.2% | – | –
Boc-L-MeLeu-D-isoLEUA-L-MeLeu-D-PhLac-OBn | 47.9% | – | –
Boc-L-MeLeu-D-norLEUA-L-MeLeu-D-PhLac-OBn | 52.5% | – | –
Cyclo-(L-MeLeu-D-PhLac-L-Leu-D-Lac)2 | – | – | cyclisation yield: 62%
Cyclo-(L-MeLeu-D-isoLEUA-L-MeLeu-D-PhLac)2 | – | – | cyclisation yield: 29.0%
Cyclo-(L-MeLeu-D-norLEUA-L-MeLeu-D-PhLac)2 | – | – | cyclisation yield: 35.8%
H-(-L-MeLeu-D-Lac-)2 -OBn | – | 100% | –
H-L-MeLeu-D-Lac-L-MeLeu-D-TYRA(OBn)-O-All | – | 94.0% | –
H-L-MeLeu-D-PhLac-L-MeLeu-D-Lac-OBn | – | 98% | –
cyclo(L-MeLeu-D-VALA-L-MeLeu-D-PhLac)2 | – | – | cyclisation yield: 56.5%
cyclo-(-L-MeLeu-D-Lac-L-MeLeu-D-PhLac-L-MeLeu-D-Lac-L-MeLeu-D-LEUA-) | – | – | cyclisation yield: 44%
cyclo-(-L-Meleu-D-Lac-L-MeLeu-D-TYRA-L-MeLeu-D-Lac-L-MeLeu-D-PhLac) | – | – | cyclisation yield: 33%
cyclo-(L-MeLeu-D-Lac-)4 | – | – | cyclisation yield: 86%
cyclo-(L-MeLeu-D-Lac-L-Leu-D-PhLac)2 | – | – | cyclisation yield: 55.8%
cyclo-(L-MeLeu-D-Lac-L-MeLeu-D-PhLac-L-MeLeu-D-norLEUA-L-MeLeu-D-PhLac) | – | – | cyclisation yield: 82.0%
cyclo-(L-MeLeu-D-Lac-L-MeLeu-D-TYRA(OBn))2 | – | – | cyclisation yield: 60.5%
cyclo-(L-MeLeu-D-Lac-L-MeLeu-D-TYRA)2 | – | 63.0% | –

Substance | step yield (coupling step) | step yield (late stage modification step) | other results
cyclo-(L-MeLeu-D-OctA-L-MeLeu-D-Lac)2 | – | – | cyclisation yield: 92%
cyclo-(L-MeLeu-D-PhLac-L-MeLeu-D-Lac-L-MeLeu-D-TYRA(3,5-di-Br)-L-MeLeu-D-Lac) | – | 89.0% | –
cyclo-(L-MeLeu-D-PhLac-L-MeLeu-D-Lac-L-MeLeu-D-TYRA(3,5-di-Br,O-Me)-L-MeLeu-D-Lac) | – | 53.1% | –
cyclo-(L-MeLeu-D-PhLac-L-MeLeu-D-Lac-L-MeLeu-D-TYRA(3,5-di-Cl)-L-MeLeu-D-Lac) | – | 37.2% | –
cyclo-(L-MeLeu-D-PhLac-L-MeLeu-D-Lac-L-MeLeu-D-TYRA(3,5-diiode)-L-MeLeu-D- Lac) | – | 42.4% | –
cyclo-(L-MeLeu-D-PhLac-L-MeLeu-D-Lac-L-MeLeu-D-TYRA(O-All)-L-MeLeu-D-Lac) | – | 73.8% | –
cyclo-(L-MeLeu-D-PhLac-L-MeLeu-D-Lac-L-MeLeu-D-TYRA(O-Me,3,5-di-I)-L-MeLeu-D-Lac) | – | 61.9% | –
cyclo-(L-MeLeu-D-PhLac-L-MeLeu-D-Lac-L-MeLeu-D-TYRA(O-Oct)-L-MeLeu-D-Lac) | – | 70.6% | –
cyclo-(L-MeLeu-D-PhLac-L-MeLeu-D-Lac-L-MeLeu-D-TYRA(O-THP)-L-MeLeu-D-Lac) | – | 91% | –
cyclo-(L-MeLeu-D-PhLac-L-MeLeu-D-Lac-L-MeLeu-D-TYRA(O-Tr)-L-MeLeu-D-Lac) | – | 56% | –
cyclo-(L-MeLeu-D-PhLac-L-MeLeu-D-Lac-L-MeLeu-D-TYRA(O-iso-Pr)-L-MeLeu-D-Lac) | – | 50% | –
cyclo-(L-MeLeu-D-PhLac-L-MeLeu-D-Lac-L-MeLeu-D-TYRA(O-n-Bu)-L-MeLeu-D-Lac) | – | 73.7% | –
cyclo-(L-MeLeu-D-PhLac-L-MeLeu-D-Lac-L-MeLeu-D-TYRA(O-n-Pr)-L-MeLeu-D-Lac) | – | 47% | –
cyclo-(L-MeLeu-D-PhLac-L-MeLeu-D-Lac-L-MeLeu-D-TYRA(O-t-Bu)-L-MeLeu-D-Lac) | – | 77.6% | –
cyclo-(L-MeLeu-D-PhLac-L-MeLeu-D-Lac-L-MeLeu-D-TYRA(OBn)-L-MeLeu-D-Lac) | – | 95.8% | –
cyclo-(L-MeLeu-D-PhLac-L-MeLeu-D-Lac-L-MeLeu-D-TYRA(OCOC17 H35)-L-MeLeu-D-Lac) | – | – | step yield (lipidation step): 67.1%
cyclo-(L-MeLeu-D-PhLac-L-MeLeu-D-Lac-L-MeLeu-D-TYRA(OCOO-isoBu)-L-MeLeu-D- Lac) | – | 58.6% | –
cyclo-(L-MeLeu-D-VALA-L-MeLeu-D-Lac)2 | – | – | cyclisation yield: 92%
